Measured values: PMC4270071
Residue numbers refer to the chain shown, from its start. No constants are given. Whether binding was seen depends on the method and setting. Some binding calls cover weakened binding; strength is not graded here. Where a sequence is shown, tags or fusion partners need not be part of it.

Key:
Assay in all cases: co-purification of co-expressed subunits (tandem affinity); Sf9 cells co-expressing His6-DKC1 (wild type or mutant), GAR1, FLAG-NHP2, NOP10 (wild type or R34W); Ni-NTA, Heparin Sepharose (1 M NaCl eluate), anti-FLAG agarose, mock or MNase treated, washed with 0.6 M NaCl, FLAG peptide elution; silver or Coomassie stain
[1] = biological target: T1, His6-tagged human DKC1 D125A (Sf9) (human) (UniProt O60832)
T1 sequence: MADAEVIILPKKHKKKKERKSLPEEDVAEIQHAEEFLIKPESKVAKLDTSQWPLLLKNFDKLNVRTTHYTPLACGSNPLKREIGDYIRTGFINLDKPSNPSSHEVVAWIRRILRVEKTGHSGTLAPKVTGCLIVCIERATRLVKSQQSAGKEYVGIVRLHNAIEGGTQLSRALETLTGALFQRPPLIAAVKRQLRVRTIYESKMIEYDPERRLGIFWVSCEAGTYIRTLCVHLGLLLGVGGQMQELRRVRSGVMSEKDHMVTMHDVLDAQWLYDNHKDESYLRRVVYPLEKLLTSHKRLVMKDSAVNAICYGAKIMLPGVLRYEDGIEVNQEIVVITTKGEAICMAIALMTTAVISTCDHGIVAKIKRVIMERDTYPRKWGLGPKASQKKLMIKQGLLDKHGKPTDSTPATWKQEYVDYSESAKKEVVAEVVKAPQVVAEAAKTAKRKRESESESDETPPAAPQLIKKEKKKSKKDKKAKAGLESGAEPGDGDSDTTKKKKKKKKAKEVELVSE

[2] = biological target: T2, His6-tagged human DKC1, wild type (Sf9) (human) (UniProt O60832)
T2 sequence: T1 sequence with A125D

[3] = biological target: T3, His6-tagged human DKC1 A353V (Sf9) (human) (UniProt O60832)
T3 sequence: T1 sequence with A125D, A353V

[4] = biological target: T4, His6-tagged human DKC1 L37del (Sf9) (human) (UniProt O60832)
T4 sequence: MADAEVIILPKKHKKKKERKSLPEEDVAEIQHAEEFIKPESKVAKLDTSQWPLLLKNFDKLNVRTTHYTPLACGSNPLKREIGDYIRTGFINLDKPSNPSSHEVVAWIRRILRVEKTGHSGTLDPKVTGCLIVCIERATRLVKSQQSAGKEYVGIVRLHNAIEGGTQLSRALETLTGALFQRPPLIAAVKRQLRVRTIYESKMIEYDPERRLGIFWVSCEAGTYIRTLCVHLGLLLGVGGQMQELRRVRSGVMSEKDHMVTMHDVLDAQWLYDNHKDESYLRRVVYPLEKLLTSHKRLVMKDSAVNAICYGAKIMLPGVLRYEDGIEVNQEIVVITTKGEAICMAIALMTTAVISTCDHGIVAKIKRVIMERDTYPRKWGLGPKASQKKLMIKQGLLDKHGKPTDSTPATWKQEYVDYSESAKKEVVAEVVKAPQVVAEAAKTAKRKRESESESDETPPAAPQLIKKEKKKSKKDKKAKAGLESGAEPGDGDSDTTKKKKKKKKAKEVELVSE

Measured: binding

B1: FLAG-tagged NHP2 (Sf9) (protein, UniProt Q9NX24 1-153)
chain: MTKIKADPDGPEAQAEACSGERTYQELLVNQNPIAQPLASRRLTRKLYKCIKKAVKQKQIRRGVKEVQKFVNKGEKGIMVLAGDTLPIEVYCHLPVMCEDRNLPYVYIPSKTDLGAAAGSKRPTCVIMVKPHEEYQEAYDECLEEVQSLPLPL
binds: [1] | [2] | [3] | [4]
